Assay results taken from paper PMC5173251.
No constants are given. Whether binding was seen depends on the method and setting. In cells and extracts the contact can be indirect. These calls come from enrichment with a bait or labelling near it, and not all partners need be listed. Sequences can lack the tags named with a protein.

Protein sequences, listed by entry. Tags and fused reporters are not part of them.
UniProt Q7KWK5: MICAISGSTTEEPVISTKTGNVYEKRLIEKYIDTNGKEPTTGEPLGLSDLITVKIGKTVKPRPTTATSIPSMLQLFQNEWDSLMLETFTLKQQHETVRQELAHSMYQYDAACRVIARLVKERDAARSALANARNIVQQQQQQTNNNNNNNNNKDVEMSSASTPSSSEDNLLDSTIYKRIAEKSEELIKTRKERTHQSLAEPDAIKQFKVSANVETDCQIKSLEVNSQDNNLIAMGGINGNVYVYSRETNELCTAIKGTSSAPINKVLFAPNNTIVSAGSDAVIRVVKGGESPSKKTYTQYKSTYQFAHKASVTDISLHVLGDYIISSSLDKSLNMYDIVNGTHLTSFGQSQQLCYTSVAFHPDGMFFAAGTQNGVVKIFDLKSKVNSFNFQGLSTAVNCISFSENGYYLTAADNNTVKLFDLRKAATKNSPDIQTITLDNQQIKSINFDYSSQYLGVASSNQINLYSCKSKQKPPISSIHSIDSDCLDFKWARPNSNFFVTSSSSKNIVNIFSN

Molecular target: T1, GFP-DdNKAP (full length DdNKAP, aa 1-510) (D. discoideum) (UniProt Q55ED4)
T1 sequence: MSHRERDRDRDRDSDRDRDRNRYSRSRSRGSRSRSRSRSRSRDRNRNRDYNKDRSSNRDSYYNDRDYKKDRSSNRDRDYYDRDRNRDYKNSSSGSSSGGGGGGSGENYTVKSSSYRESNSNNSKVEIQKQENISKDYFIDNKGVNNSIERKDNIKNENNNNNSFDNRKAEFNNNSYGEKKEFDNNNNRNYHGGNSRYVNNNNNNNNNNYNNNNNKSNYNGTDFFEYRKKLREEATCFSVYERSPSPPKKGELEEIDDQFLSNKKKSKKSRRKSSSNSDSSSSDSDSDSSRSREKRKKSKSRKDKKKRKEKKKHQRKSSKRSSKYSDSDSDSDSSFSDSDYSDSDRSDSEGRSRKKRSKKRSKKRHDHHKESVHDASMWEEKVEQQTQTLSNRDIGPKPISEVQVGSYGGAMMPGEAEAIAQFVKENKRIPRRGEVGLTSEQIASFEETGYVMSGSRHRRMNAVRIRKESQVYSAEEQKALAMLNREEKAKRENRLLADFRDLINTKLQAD
Experiment: affinity purification with mass spectrometry; lysate of AX2 cells expressing GFP-DdNKAP, immunoprecipitation with anti-GFP mAb K3-184-2; bands cut from SDS gel and identified by MALDI-MS

binding: binds
Substance: Prp19 (endogenous) (from UniProt Q7KWK5 1-514)
